# Test results from US20260256668A1, “METHODS FOR STRENGTHENING AND REPAIRING HAIR” (Living Proof, Inc., priority 2023, published 2026).
# Some entries share one result that the patent states for a list of compounds.
# Assay: Water contact angle (surface hydrophobicity), DSA100M Drop Shape Analyzer
# Settings: aqueous solution 1 wt % active (FIG. 14)
# Procedure: For this test, […], which was prepared by treating European virgin brown hair with a mixture of BW2 bleaching powder and clear 30 V developer (1:1.5 ratio, 5 g mixture per 1.5 g of hair) for 20 min under a Belvedere hooded dryer with high heat setting, followed by 30 s water rinse, 30 s 10% SLES wash, and air dry at room temperature. […] In the DSA method, a single hair fiber is mounted in a sample holder and focused by the digital camera of DSA100M. Then a droplet of filtered DI water (20-60 nL) is applied to the top of the hair fiber by a digital droplet applier, A video is then recorded until the disappearance of the water droplet. The water contact angle is obtained using the first image of the water droplet recorded. The data is collected for 3 fibers per treatment and 3 points per fiber, a total of 9 data points per treatment.
substance,measurement,value
Phosphatidylcholine [PC],increase of the water contact angle,at least 60%
